These are yes or no findings as the source states them, for the method shown. Some binding calls cover weakened binding; strength is not graded here.
Tests used:
[1] = biological target: LAP (LAP-TGFβ1) expressed endogenously on human cells (human) (UniProt P01137); experiment: quantitative flow cytometry (antibody binding capacity), human platelets
[2] = biological target: T1, human LAP-TGFβ1 on transfected cells (human, UniProt P01137 30-390); experiment: summary table; binding to human TGFβ1 on transfected cells
[3] = biological target: LAP (LAP-TGFβ1) expressed endogenously on human cells (human) (UniProt P01137); experiment: summary table; binding to GARP+ human cells
[4] = biological target: murine TGFβ1 in absence of anchor protein (ForteBio) (murine) (UniProt P04202); experiment: summary table; ForteBio, murine TGFβ1 in absence of anchor protein
[5] = biological target: LAP (LAP-TGFβ1) expressed endogenously on human cells (human) (UniProt P01137); experiment: flow cytometry, U937 cells, Alexa 647 conjugated mAb
[6] = biological target: LAP (LAP-TGFβ1) expressed endogenously on human cells (human) (UniProt P01137); experiment: flow cytometry, activated human Tregs, biotinylated mAb
[7] = biological target: recombinant human LAP-TGFβ1-Fc fusion protein (human) (UniProt P01137); experiment: summary table; ForteBio, human TGFβ1 in absence of anchor protein
[8] = biological target: LAP (LAP-TGFβ1) expressed endogenously on human cells (human) (UniProt P01137); experiment: immunohistochemistry, frozen human hepatocellular carcinoma sections, 10 µg/ml
[9] = biological target: LAP (LAP-TGFβ1) expressed endogenously on human cells (human) (UniProt P01137); experiment: summary table; binding to GARPneg human cells
[10] = biological target: LAP (LAP-TGFβ1) expressed endogenously on human cells (human) (UniProt P01137); experiment: flow cytometry, activated human PBMC
[11] = biological target: LAP (LAP-TGFβ1) expressed endogenously on human cells (human) (UniProt P01137); experiment: flow cytometry, activated human PBMC, CD4+ T cells
[12] = biological target: LAP (LAP-TGFβ1) expressed endogenously on human cells (human) (UniProt P01137); experiment: flow cytometry, CD61+ platelets in diluted human whole blood, conjugated mAb
[13] = biological target: T1, human LAP-TGFβ1 on transfected cells; experiment: flow cytometry, HT1080 cells, variant experiment (FIGS. 5, 6)
[14] = biological target: murine LAP-TGFβ1 on transfected cells (murine, UniProt P04202 30-390); experiment: flow cytometry, HT1080 cells overexpressing murine LAP-TGFβ1
[15] = biological target: T1, human LAP-TGFβ1 on transfected cells; experiment: flow cytometry, HT1080 cells overexpressing human LAP-TGFβ1
[16] = biological target: human LAP-TGFβ1 with K27C and Y75C mutations on HT1080 cells (human) (UniProt P01137); experiment: flow cytometry, HT1080 cells overexpressing the variant
[17] = biological target: human LAP-TGFβ1 co-expressed with LRRC33 on P3U1 cells (human) (UniProt Q86YC3); experiment: flow cytometry, P3U1 cells overexpressing LAP-TGFβ1 and LRRC33
[18] = biological target: T1, human LAP-TGFβ1 on transfected cells; experiment: flow cytometry, P3U1-hTGFβ1 cells

The chains behind the UniProt entries cited, without tags or fusion partners. Where a name states a change or a piece, a line headed by the entry shows the natural chain unless it says otherwise.
UniProt P01137: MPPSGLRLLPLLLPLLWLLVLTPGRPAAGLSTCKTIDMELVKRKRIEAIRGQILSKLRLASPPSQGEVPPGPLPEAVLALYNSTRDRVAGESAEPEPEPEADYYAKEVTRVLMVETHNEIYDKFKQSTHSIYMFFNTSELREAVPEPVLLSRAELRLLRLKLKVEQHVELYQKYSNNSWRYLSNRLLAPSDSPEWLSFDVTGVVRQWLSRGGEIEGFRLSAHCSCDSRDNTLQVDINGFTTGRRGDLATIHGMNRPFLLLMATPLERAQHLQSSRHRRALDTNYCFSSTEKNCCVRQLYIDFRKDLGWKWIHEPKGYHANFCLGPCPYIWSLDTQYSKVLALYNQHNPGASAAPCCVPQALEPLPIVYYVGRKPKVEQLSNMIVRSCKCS
UniProt P04202: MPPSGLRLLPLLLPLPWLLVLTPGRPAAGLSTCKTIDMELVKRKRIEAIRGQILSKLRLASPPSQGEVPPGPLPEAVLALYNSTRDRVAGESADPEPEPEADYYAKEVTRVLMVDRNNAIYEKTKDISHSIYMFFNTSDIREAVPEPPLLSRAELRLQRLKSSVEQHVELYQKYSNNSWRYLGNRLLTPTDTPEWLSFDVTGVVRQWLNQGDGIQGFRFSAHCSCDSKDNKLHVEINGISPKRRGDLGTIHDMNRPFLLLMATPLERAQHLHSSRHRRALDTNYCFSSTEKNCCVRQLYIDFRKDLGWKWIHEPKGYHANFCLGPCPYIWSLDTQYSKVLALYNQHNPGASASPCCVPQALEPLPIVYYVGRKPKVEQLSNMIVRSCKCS
UniProt Q86YC3: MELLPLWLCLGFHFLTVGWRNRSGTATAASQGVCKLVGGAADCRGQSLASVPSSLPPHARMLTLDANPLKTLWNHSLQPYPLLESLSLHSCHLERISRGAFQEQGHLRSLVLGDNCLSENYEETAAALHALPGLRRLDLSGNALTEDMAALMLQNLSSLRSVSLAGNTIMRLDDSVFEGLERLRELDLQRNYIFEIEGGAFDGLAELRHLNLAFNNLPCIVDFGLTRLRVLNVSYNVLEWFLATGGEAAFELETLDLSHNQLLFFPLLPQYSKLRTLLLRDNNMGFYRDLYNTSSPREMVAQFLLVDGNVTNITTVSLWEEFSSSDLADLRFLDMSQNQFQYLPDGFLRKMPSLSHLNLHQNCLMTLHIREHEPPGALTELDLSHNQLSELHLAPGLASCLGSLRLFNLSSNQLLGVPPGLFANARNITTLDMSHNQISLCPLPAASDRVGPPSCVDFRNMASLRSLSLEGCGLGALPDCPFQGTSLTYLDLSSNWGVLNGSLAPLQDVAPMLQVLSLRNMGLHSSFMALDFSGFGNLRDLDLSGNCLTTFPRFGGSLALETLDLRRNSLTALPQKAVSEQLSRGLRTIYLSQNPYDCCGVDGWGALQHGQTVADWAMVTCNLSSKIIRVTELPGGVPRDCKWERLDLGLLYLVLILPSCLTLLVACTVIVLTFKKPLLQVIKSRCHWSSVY

Measured: binding

B1: 28G11 (antibody, V domains shown)
VH: EVKLVESGGGLVQPGGSLSLSCAASGFTFTDYYMSWVRQPPGKALEWLGFIRNKPNGYTTEYSASVKGRFTISRDNSQSILYLQMNVLRAEDSATYYCARYTGGGYFDYWGQGTTLTVSS
VL: DIQMTQTTSSLSASLGDRLTISCRASQDISNYLNWYQQKPDGTVKLLIYYTSRLHSGVPSRFSGSGSGTDYSLTISNLEQADIATYFCQQGDTLPWTFGGGTKLEIK
notes: Mouse hybridoma antibody; Used biotinylated or dye-conjugated in cell assays; also called 28G11_(hyb); 28G11_hyb
not listed: [13] | [14] | [15] | [16] | [17] | [18]
binds: all other assays above

B2: 7H4 (antibody, V domains shown)
VH: DVQLQESGPGLVKPSQSLSLTCSVTGYSITSGYYWNWIRQFPGNKLEWMGYISYDGTNNYNPSLKNRISITRDTSKHQFFLKLNSVTTEDTATYYCARSFYNNYFDFWGQGTTLTVSS
VL: DIQMTQSPSSLSASLGGKVTITCKASQDIDKYIAWYQHKPGKGPRLLIHYTSTLQPGIPSRFSGSGSGRDYSFNISNLEPEDIATYYCLQYDNLRTFGGGTKLEIK
binds: [2] | [3] | [6]

B3: 28G11_hIgG1 (antibody, V domains shown)
VH: B1 VH
VL: B1 VL
notes: 28G11 in human IgG1 format, by its name
binds: [13] | [14] | [15] | [16] | [17] | [18]
